Assay results published in publication doi:10.1101/2021.04.06.438596.
No constants are given. Whether binding was seen depends on the method and setting. Some binding calls cover weakened binding; strength is not graded here. For part of these data: Tags and fused reporters may be left off the sequences shown. Values belong to the binder of their own block, whether it stands above or below them.

Experiments:
[1] = biological target: T1, endogenous Sept7 (human (endogenous in U2OS, HeLa, RPE1, SKBr3)) (UniProt Q16181); assay: native gel or EMSA
T1 sequence: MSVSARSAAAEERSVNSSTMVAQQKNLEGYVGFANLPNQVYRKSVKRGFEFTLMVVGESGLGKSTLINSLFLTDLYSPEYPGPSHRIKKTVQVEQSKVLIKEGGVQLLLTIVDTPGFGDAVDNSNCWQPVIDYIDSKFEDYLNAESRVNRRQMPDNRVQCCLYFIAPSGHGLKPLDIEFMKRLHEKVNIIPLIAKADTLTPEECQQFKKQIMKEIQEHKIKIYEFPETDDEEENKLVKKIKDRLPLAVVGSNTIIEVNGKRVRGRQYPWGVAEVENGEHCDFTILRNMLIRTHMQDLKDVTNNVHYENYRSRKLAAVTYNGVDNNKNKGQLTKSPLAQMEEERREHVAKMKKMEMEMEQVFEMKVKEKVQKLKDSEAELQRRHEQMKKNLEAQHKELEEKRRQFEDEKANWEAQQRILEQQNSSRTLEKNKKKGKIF

[2] = biological target: T2, recombinant human Sept7 (human) (UniProt Q16181); assay: co-purification of a recombinant complex + native gel or EMSA
T2 sequence: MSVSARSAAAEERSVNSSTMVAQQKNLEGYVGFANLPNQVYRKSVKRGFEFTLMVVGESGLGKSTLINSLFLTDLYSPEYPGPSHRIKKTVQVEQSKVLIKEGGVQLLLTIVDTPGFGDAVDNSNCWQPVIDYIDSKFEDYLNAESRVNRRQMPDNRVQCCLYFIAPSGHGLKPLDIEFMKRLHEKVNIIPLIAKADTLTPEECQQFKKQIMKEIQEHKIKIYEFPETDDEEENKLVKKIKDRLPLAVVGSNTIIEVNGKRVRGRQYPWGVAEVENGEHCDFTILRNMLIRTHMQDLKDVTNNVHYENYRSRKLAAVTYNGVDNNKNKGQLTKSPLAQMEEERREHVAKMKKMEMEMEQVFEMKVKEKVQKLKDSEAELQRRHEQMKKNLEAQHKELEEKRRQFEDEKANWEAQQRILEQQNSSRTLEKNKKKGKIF

[3] = biological target: T3, wild type Sept9_i1-GFP (human), Q9UHD8; assay: native gel or EMSA; details: remark: other sources report otherwise
T3 chain: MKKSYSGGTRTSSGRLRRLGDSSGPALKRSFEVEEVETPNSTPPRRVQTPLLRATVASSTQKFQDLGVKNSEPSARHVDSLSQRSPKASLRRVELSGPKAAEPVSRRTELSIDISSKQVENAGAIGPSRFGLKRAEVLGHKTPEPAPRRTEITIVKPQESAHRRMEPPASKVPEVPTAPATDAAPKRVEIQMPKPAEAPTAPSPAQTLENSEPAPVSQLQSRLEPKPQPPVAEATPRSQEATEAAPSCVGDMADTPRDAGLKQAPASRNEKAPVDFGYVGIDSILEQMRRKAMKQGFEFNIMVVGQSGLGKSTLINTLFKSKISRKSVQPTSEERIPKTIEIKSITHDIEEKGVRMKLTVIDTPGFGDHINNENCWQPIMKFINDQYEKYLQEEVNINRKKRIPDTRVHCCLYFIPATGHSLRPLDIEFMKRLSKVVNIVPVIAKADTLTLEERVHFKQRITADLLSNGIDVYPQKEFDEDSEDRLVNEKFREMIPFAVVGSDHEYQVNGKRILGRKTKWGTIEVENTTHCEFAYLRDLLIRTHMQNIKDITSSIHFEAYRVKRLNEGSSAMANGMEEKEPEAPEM

[4] = biological target: T4, recombinant human Sept6 (human) (UniProt Q14141); assay: co-purification of a recombinant complex + native gel or EMSA
T4 sequence: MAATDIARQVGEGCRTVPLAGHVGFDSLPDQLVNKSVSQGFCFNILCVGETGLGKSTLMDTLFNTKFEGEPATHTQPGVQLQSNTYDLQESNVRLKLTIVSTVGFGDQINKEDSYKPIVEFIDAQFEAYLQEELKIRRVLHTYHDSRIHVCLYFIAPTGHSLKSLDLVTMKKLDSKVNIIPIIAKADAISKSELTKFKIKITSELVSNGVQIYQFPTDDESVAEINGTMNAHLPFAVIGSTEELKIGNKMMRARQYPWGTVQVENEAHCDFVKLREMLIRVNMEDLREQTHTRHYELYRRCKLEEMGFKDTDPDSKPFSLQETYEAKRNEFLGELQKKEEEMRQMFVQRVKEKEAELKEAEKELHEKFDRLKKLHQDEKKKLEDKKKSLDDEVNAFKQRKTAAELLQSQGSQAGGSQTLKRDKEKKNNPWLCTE

[5] = biological target: T5, recombinant human Sept2 (human) (UniProt Q15019); assay: as above
T5 sequence: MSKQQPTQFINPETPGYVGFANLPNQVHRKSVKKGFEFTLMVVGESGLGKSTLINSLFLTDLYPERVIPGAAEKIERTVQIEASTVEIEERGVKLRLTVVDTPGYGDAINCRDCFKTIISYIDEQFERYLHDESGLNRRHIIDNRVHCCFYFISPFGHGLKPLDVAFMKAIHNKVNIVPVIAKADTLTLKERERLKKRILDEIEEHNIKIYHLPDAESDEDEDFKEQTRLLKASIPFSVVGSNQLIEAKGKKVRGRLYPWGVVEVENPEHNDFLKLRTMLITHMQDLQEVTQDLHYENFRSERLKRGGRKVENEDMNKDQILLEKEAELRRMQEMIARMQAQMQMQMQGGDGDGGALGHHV

B2: recombinant human Sept9_i1 (protein, UniProt Q9UHD8 1-586)
chain: MKKSYSGGTRTSSGRLRRLGDSSGPALKRSFEVEEVETPNSTPPRRVQTPLLRATVASSTQKFQDLGVKNSEPSARHVDSLSQRSPKASLRRVELSGPKAAEPVSRRTELSIDISSKQVENAGAIGPSRFGLKRAEVLGHKTPEPAPRRTEITIVKPQESAHRRMEPPASKVPEVPTAPATDAAPKRVEIQMPKPAEAPTAPSPAQTLENSEPAPVSQLQSRLEPKPQPPVAEATPRSQEATEAAPSCVGDMADTPRDAGLKQAPASRNEKAPVDFGYVGIDSILEQMRRKAMKQGFEFNIMVVGQSGLGKSTLINTLFKSKISRKSVQPTSEERIPKTIEIKSITHDIEEKGVRMKLTVIDTPGFGDHINNENCWQPIMKFINDQYEKYLQEEVNINRKKRIPDTRVHCCLYFIPATGHSLRPLDIEFMKRLSKVVNIVPVIAKADTLTLEERVHFKQRITADLLSNGIDVYPQKEFDEDSEDRLVNEKFREMIPFAVVGSDHEYQVNGKRILGRKTKWGTIEVENTTHCEFAYLRDLLIRTHMQNIKDITSSIHFEAYRVKRLNEGSSAMANGMEEKEPEAPEM
binding [2]: binds

B3: wild type Sept9_i1-GFP, Q9UHD8 1-586 (protein)
chain: MKKSYSGGTRTSSGRLRRLGDSSGPALKRSFEVEEVETPNSTPPRRVQTPLLRATVASSTQKFQDLGVKNSEPSARHVDSLSQRSPKASLRRVELSGPKAAEPVSRRTELSIDISSKQVENAGAIGPSRFGLKRAEVLGHKTPEPAPRRTEITIVKPQESAHRRMEPPASKVPEVPTAPATDAAPKRVEIQMPKPAEAPTAPSPAQTLENSEPAPVSQLQSRLEPKPQPPVAEATPRSQEATEAAPSCVGDMADTPRDAGLKQAPASRNEKAPVDFGYVGIDSILEQMRRKAMKQGFEFNIMVVGQSGLGKSTLINTLFKSKISRKSVQPTSEERIPKTIEIKSITHDIEEKGVRMKLTVIDTPGFGDHINNENCWQPIMKFINDQYEKYLQEEVNINRKKRIPDTRVHCCLYFIPATGHSLRPLDIEFMKRLSKVVNIVPVIAKADTLTLEERVHFKQRITADLLSNGIDVYPQKEFDEDSEDRLVNEKFREMIPFAVVGSDHEYQVNGKRILGRKTKWGTIEVENTTHCEFAYLRDLLIRTHMQNIKDITSSIHFEAYRVKRLNEGSSAMANGMEEKEPEAPEM
binding [3]: binds

B4: recombinant human Sept7 (protein, UniProt Q16181 1-437)
chain: MSVSARSAAAEERSVNSSTMVAQQKNLEGYVGFANLPNQVYRKSVKRGFEFTLMVVGESGLGKSTLINSLFLTDLYSPEYPGPSHRIKKTVQVEQSKVLIKEGGVQLLLTIVDTPGFGDAVDNSNCWQPVIDYIDSKFEDYLNAESRVNRRQMPDNRVQCCLYFIAPSGHGLKPLDIEFMKRLHEKVNIIPLIAKADTLTPEECQQFKKQIMKEIQEHKIKIYEFPETDDEEENKLVKKIKDRLPLAVVGSNTIIEVNGKRVRGRQYPWGVAEVENGEHCDFTILRNMLIRTHMQDLKDVTNNVHYENYRSRKLAAVTYNGVDNNKNKGQLTKSPLAQMEEERREHVAKMKKMEMEMEQVFEMKVKEKVQKLKDSEAELQRRHEQMKKNLEAQHKELEEKRRQFEDEKANWEAQQRILEQQNSSRTLEKNKKKGKIF
binding [4]: binds

B6: recombinant human Sept6 (protein, UniProt Q14141 1-434)
chain: MAATDIARQVGEGCRTVPLAGHVGFDSLPDQLVNKSVSQGFCFNILCVGETGLGKSTLMDTLFNTKFEGEPATHTQPGVQLQSNTYDLQESNVRLKLTIVSTVGFGDQINKEDSYKPIVEFIDAQFEAYLQEELKIRRVLHTYHDSRIHVCLYFIAPTGHSLKSLDLVTMKKLDSKVNIIPIIAKADAISKSELTKFKIKITSELVSNGVQIYQFPTDDESVAEINGTMNAHLPFAVIGSTEELKIGNKMMRARQYPWGTVQVENEAHCDFVKLREMLIRVNMEDLREQTHTRHYELYRRCKLEEMGFKDTDPDSKPFSLQETYEAKRNEFLGELQKKEEEMRQMFVQRVKEKEAELKEAEKELHEKFDRLKKLHQDEKKKLEDKKKSLDDEVNAFKQRKTAAELLQSQGSQAGGSQTLKRDKEKKNNPWLCTE
binding [5]: binds

Second part, the binder after the results:

binding [1]: binds
B1: endogenous Sept9 (long isoforms, detected with a pan Sept9 antibody) (protein, UniProt Q9UHD8 1-586)
chain: MKKSYSGGTRTSSGRLRRLGDSSGPALKRSFEVEEVETPNSTPPRRVQTPLLRATVASSTQKFQDLGVKNSEPSARHVDSLSQRSPKASLRRVELSGPKAAEPVSRRTELSIDISSKQVENAGAIGPSRFGLKRAEVLGHKTPEPAPRRTEITIVKPQESAHRRMEPPASKVPEVPTAPATDAAPKRVEIQMPKPAEAPTAPSPAQTLENSEPAPVSQLQSRLEPKPQPPVAEATPRSQEATEAAPSCVGDMADTPRDAGLKQAPASRNEKAPVDFGYVGIDSILEQMRRKAMKQGFEFNIMVVGQSGLGKSTLINTLFKSKISRKSVQPTSEERIPKTIEIKSITHDIEEKGVRMKLTVIDTPGFGDHINNENCWQPIMKFINDQYEKYLQEEVNINRKKRIPDTRVHCCLYFIPATGHSLRPLDIEFMKRLSKVVNIVPVIAKADTLTLEERVHFKQRITADLLSNGIDVYPQKEFDEDSEDRLVNEKFREMIPFAVVGSDHEYQVNGKRILGRKTKWGTIEVENTTHCEFAYLRDLLIRTHMQNIKDITSSIHFEAYRVKRLNEGSSAMANGMEEKEPEAPEM

binding [1]: binds
B5: endogenous Sept8 (protein, UniProt Q92599 1-483)
chain: MAATDLERFSNAEPEPRSLSLGGHVGFDSLPDQLVSKSVTQGFSFNILCVGETGIGKSTLMNTLFNTTFETEEASHHEACVRLRPQTYDLQESNVQLKLTIVDAVGFGDQINKDESYRPIVDYIDAQFENYLQEELKIRRSLFDYHDTRIHVCLYFITPTGHSLKSLDLVTMKKLDSKVNIIPIIAKADTISKSELHKFKIKIMGELVSNGVQIYQFPTDDEAVAEINAVMNAHLPFAVVGSTEEVKVGNKLVRARQYPWGVVQVENENHCDFVKLREMLIRVNMEDLREQTHSRHYELYRRCKLEEMGFQDSDGDSQPFSLQETYEAKRKEFLSELQRKEEEMRQMFVNKVKETELELKEKERELHEKFEHLKRVHQEEKRKVEEKRRELEEETNAFNRRKAAVEALQSQALHATSQQPLRKDKDKKNRSDIGAHQPGMSLSSSKVMMTKASVEPLNCSSWWPAIQCCSCLVRDATWREGFL
